For 30 compounds, survivor count and T/C results are on record in PubChem BioAssay AID248 (DTP/NCI, 2004).

The test has as its system L1210 leukemia ip in BDF1 mice, survival T/C. In words: NCI In Vivo Anticancer Drug Screen. Data for tumor model L1210 Leukemia (intraperitoneal) in B6D2F1 (BDF1) mice. The conditions noted are these: T/C endpoint: mean survival time, higher T/C = longer survival.
The mark [1] stands for this setting: dose: 400.0 mg/kg/injection, schedule: Q01DX009 (ip), vehicle: Klucel (hydroxypropylcellulose) (HPC).
Where [2] appears, read: dose: 400.0 mg/kg/injection, schedule: Q04DX003 (ip), vehicle: saline with Tween-80.
The mark [3] stands for this setting: dose: 100.0 mg/kg/injection, schedule: Q01DX009 (ip), vehicle: Klucel (hydroxypropylcellulose) (HPC).
Setting [4] is: dose: 100.0 mg/kg/injection, schedule: Q01DX001 (ip), vehicle: Klucel (hydroxypropylcellulose) (HPC).
The mark [5] stands for this setting: dose: 200.0 mg/kg/injection, schedule: Q01DX009 (ip), vehicle: saline.
Where [6] appears, read: dose: 400.0 mg/kg/injection, schedule: Q01DX009 (ip), vehicle: saline.
[7] abbreviates: dose: 200.0 mg/kg/injection, schedule: Q04DX002 (ip), vehicle: saline.
The mark [8] stands for this setting: dose: 400.0 mg/kg/injection, schedule: Q04DX002 (ip), vehicle: Klucel (hydroxypropylcellulose) (HPC).
The mark [9] stands for this setting: dose: 400.0 mg/kg/injection, schedule: Q04DX002 (ip), vehicle: saline.
Where [10] appears, read: dose: 300.0 mg/kg/injection, schedule: Q01DX001 (ip), vehicle: saline.

The list does not hold the whole screen: it is rich in T/C values a quarter to a half above the control, in often repeated tests (any T/C) and in doses without a T/C. Other doses and runs of a compound stand elsewhere. T/C is the treated group as % of the vehicle group. Some entries give survivors of the animals treated and no T/C: the source files T/C as zero there, which appears to mark a toxic dose or a test without result, not a measured value. Some doses without a T/C left all or most animals alive at the check, yet need not have been tolerated: the source hardly ever lists a survival T/C far under the control, and the zero likely stands for such cases as well. Counts of survivors are from the toxicity check (mostly the fifth day) where no day follows; animals may have died later. Schedules are NCI's codes, read here as Q, the interval in days (D) or hours (H), X, the number of doses. Some doses were run more than once; the values are given in rising order. Some molecules as drawn cover several salts, stereoisomers or complexes of the source; a dose is that of the sample tested. Some schedules carry Z or #; the key to these is not given. Where survival is the endpoint, this PubChem deposit counts one and a half times the control or more as active, and values a quarter to a half above the control carry no call in these data; other NCI protocols may use other cut-offs.

As to `CCCc1nc2c(OC)ccc(OC)c2nc1C`, the survivor count under setting [1] was 0 of 6.

Regarding `C[n+]1c(/C=C/c2ccc(O)c3ncccc23)[se]c2ccccc21`, the survivor count (dose: 22.0 mg/kg/injection, schedule: Q01DX009 (ip), vehicle: saline) is recorded as 3 of 6; the survivor count (dose: 34.0 mg/kg/injection, schedule: Q01DX009 (ip), vehicle: saline) was 0 of 6; the survivor count (dose: 80.0 mg/kg/injection, schedule: Q01DX009 (ip), vehicle: saline) is recorded as 0 of 6; the survivor count (dose: 120.0 mg/kg/injection, schedule: Q01DX009 (ip), vehicle: saline) is 0 of 6.

For `COc1nccc2ccccc12`, under setting [2], the survivor count is given as 6 of 6.

Turning to `C/C(=N\Sc1ccccc1)c1ccccc1O`, the survivor count (dose: 400.0 mg/kg/injection, schedule: Q04DX002 (ip), vehicle: other) is given as 1 of 3.

Take `COc1cc([N+](=O)[O-])ccc1NC(=O)N(C1CCCCC1)C1CCCCC1`: for the setting “dose: 200.0 mg/kg/injection, schedule: Q04DX002 (ip), vehicle: saline with Tween-80”, the survivor count was 3 of 3 and 6 of 6.

With `CCCCC(I)C(C)(C)[n+]1ccccc1` (stereo not given), the survivor count runs as follows: (dose: 100.0 mg/kg/injection, schedule: Q04DX003 (ip), vehicle: saline with Tween-80) 0 of 6; (dose: 200.0 mg/kg/injection, schedule: Q04DX003 (ip), vehicle: saline with Tween-80) 0 of 6; under setting [2], 0 of 6.

Take `Cc1ccc(NC(=O)OC/C=C/c2ccccc2)cc1NC(=O)OC/C=C/c1ccccc1`: the survivor count runs as follows: under setting [3], 6 of 6; under setting [1], 6 of 6.

For the compound `C=CC1CN2CCC1CC2C(O)c1ccnc2ccccc12` (stereo not given), the survivor count (dose: 400.0 mg/kg/injection, schedule: Q01DX009 (ip), vehicle: gum acacia) is listed as 3 of 6.

Turning to `S=c1[nH]c2ccccc2o1`, the survivor count (dose: 400.0 mg/kg/injection, schedule: Q01DX009 (ip), vehicle: saline with Tween-80) is 0 of 6.

As for `C1=Cc2c3c(c4c(c2C1)C=CC4)CC=C3`, the survivor count under setting [4] is recorded as 6 of 6.

Turning to `O=C1NC(=O)C(O)(C2(O)C(=O)NC(=O)NC2=O)C(=O)N1`, where the note is “dose: 300.0 mg/kg/injection, schedule: Q01DX001 (ip), vehicle: carboxymethylcellulose (CMC)”, the survivor count was 1 of 6.

Turning to `CC(C)SCC(N)CO` (stereo not given), under “dose: 400.0 mg/kg/injection, schedule: Q01DX009 (ip), vehicle: water”, the survivor count is 3 of 6.

Turning to `COC(=O)C(N)CCCCNC(c1ccccc1)(c1ccccc1)c1ccccc1` (stereo not given), the survivor count runs as follows: under setting [5], 0 of 6; under setting [6], 0 of 6.

With `CN1CCC2(CC1)C(=O)N(Cc1ccccc1)C(=O)C2c1ccccc1` (stereo not given), the survivor count is on record as 3 of 3 (dose: 50.0 mg/kg/injection, schedule: Q04DX002 (ip), vehicle: saline); 0 of 3 under setting [7]; 0 of 3 under setting [8]; 0 of 3 under setting [9].

In the case of `NCCCS`, the survivor count under setting [10] is recorded as 2 of 6.

Take `Nc1nc(Cl)c(Br)c(=O)[nH]1`: the survivor count runs as follows: (dose: 100.0 mg/kg/injection, schedule: Q01DX Z (ip), vehicle: methylcellulose (MC)) 3 of 6; (dose: 200.0 mg/kg/injection, schedule: Q01DX Z (ip), vehicle: methylcellulose (MC)) 0 of 6.

For the compound `c1ccc(C2CC([P+](c3ccccc3)(c3ccccc3)c3ccccc3)=NN2)cc1` (stereo not given), the survivor count was 2 of 3 (dose: 6.25 mg/kg/injection, schedule: Q01DX009 (ip), vehicle: Klucel (hydroxypropylcellulose) (HPC)); 0 of 3, 1 of 6, 1 of 3 (dose: 25.0 mg/kg/injection, schedule: Q01DX009 (ip), vehicle: Klucel (hydroxypropylcellulose) (HPC)); 0 of 3 (dose: 50.0 mg/kg/injection, schedule: Q01DX009 (ip), vehicle: Klucel (hydroxypropylcellulose) (HPC)); 3 of 6 under setting [4]; 0 of 6 (dose: 100.0 mg/kg/injection, schedule: Q01DX002 (ip), vehicle: Klucel (hydroxypropylcellulose) (HPC)); 0 of 3 and 3 of 6 under setting [3]. The survivor count by setting is: (dose: 200.0 mg/kg/injection, schedule: Q01DX001 (ip), vehicle: Klucel (hydroxypropylcellulose) (HPC)) 1 of 6; (dose: 200.0 mg/kg/injection, schedule: Q01DX009 (ip), vehicle: Klucel (hydroxypropylcellulose) (HPC)) 0 of 6; under setting [1], 0 of 6. Besides, the T/C (dose: 12.5 mg/kg/injection, schedule: Q01DX009 (ip), vehicle: Klucel (hydroxypropylcellulose) (HPC)) is 126 % of control.

`O=[N+]([O-])c1cccc(O)c1`: the survivor count (dose: 400.0 mg/kg/injection, schedule: Q04DX003 (ip), vehicle: other) is listed as 5 of 6.

Take `NNC(=O)CNc1ccccc1F`: the survivor count was 0 of 3 (dose: 200.0 mg/kg/injection, schedule: Q04DX002 (ip), vehicle: Klucel (hydroxypropylcellulose) (HPC)) and 0 of 3 under setting [8].

As to `CC(=O)NC1CCCC(OC(C)=O)C1` (stereo not given), the survivor count (dose: 200.0 mg/kg/injection, schedule: Q01DX009 (ip), vehicle: saline with Tween-80) was 2 of 3.

With `COCc1ncc2cnccn12`, the survivor count reads like this: under setting [5], 4 of 6; under setting [6], 0 of 6.

Consider `Cc1ccc(C(C)C)cc1NC(=O)Nc1ccccc1F`, for which the survivor count under setting [1] is given as 6 of 6.

As for `Cc1ccc(S(=O)(=O)[O][Sn-]([CH2]c2ccccc2)([CH2]c2ccccc2)[CH2]c2ccccc2)cc1`, the survivor count (dose: 200.0 mg/kg/injection, schedule: Q01DX009 (ip), vehicle: olive oil, sesame oil, peanut oil) is listed as 0 of 3 and the survivor count (dose: 400.0 mg/kg/injection, schedule: Q04DX002 (ip), vehicle: alcohol) is 3 of 3.

Take `N#CCCCOc1ccc(Cl)cc1`: the survivor count is listed as 1 of 6 (dose: 100.0 mg/kg/injection, schedule: Q04DX003 (ip), vehicle: Klucel (hydroxypropylcellulose) (HPC)); 5 of 6 (dose: 200.0 mg/kg/injection, schedule: Q04DX003 (ip), vehicle: Klucel (hydroxypropylcellulose) (HPC)); 0 of 6 (dose: 400.0 mg/kg/injection, schedule: Q04DX003 (ip), vehicle: Klucel (hydroxypropylcellulose) (HPC)).

As for `CCOc1ccc2nc(/C=C/c3ccccc3)ccc2c1`, the survivor count (dose: 100.0 mg/kg/injection, schedule: Q01DX001 (ip), vehicle: carboxymethylcellulose (CMC)) is recorded as 6 of 6.

Take `CC(CC#N)c1ccc[nH]1` (stereo not given): the survivor count (dose: 400.0 mg/kg/injection, schedule: Q01DX001 (ip), vehicle: carboxymethylcellulose (CMC)) is reported as 0 of 4.

As for `CCNCCC[P+](c1ccccc1)(c1ccccc1)c1ccccc1`, the survivor count reads like this: under setting [7], 0 of 3; under setting [9], 0 of 3.

As to `Cc1cccnc1C(=O)O.[Cu+2]`, the survivor count is listed as 0 of 4 (dose: 100.0 mg/kg/injection, schedule: Q01DX001 (ip), vehicle: saline); 0 of 4 (dose: 200.0 mg/kg/injection, schedule: Q01DX001 (ip), vehicle: saline); 0 of 4 (dose: 400.0 mg/kg/injection, schedule: Q01DX001 (ip), vehicle: saline).

For `COC(=O)CCS`, the survivor count is on record as 0 of 6 (dose: 75.0 mg/kg/injection, schedule: Q01DX001 (ip), vehicle: saline); 6 of 6 (dose: 150.0 mg/kg/injection, schedule: Q01DX001 (ip), vehicle: saline); 0 of 6 under setting [10].

For `Cn1cnc2c(C(F)(F)F)nc(N)nc21`, for the setting “dose: 400.0 mg/kg/injection, schedule: Q04DX003 (ip), vehicle: saline”, the survivor count is 5 of 6.
